Laboratory results taken from patent US6800775B1, “Metal complexes of tripodal ligands” (Ciba Specialty Chemicals Corporation, priority 1999, dated 2004).

Key:
[1] = Fibre damage on dyed materials (relative DP reduction after fivefold treatment)
[2] = Dye damage on coloured laundry (dye loss after fivefold treatment)
[3] = Direct Blue 085, catalyst 50 μmol/l
[4] = Reactive Black 005, catalyst 50 μmol/l
[5] = Reactive Brown 017, catalyst 50 μmol/l
[6] = Reactive Red 123, catalyst 50 μmol/l
[7] = Vat Blue 004, catalyst 50 μmol/l
[8] = Vat Brown 001, catalyst 50 μmol/l

CC(=O)N(CCN(C(C)=O)C(C)=O)C(C)=O [TAED, N,N,N′,N′-tetraacetylethylenediamine]
relative DP reduction % [1, 3]: 5% | relative DP reduction % [1, 4]: 5% | relative DP reduction % [1, 5]: 15% | relative DP reduction % [1, 6]: 0% | relative DP reduction % [1, 7]: 0% | relative DP reduction % [1, 8]: 5% | Dye loss % [2, 3]: 15% | Dye loss % [2, 4]: 25% | Dye loss % [2, 5]: 15% | Dye loss % [2, 6]: 10% | Dye loss % [2, 7]: 5% | Dye loss % [2, 8]: 5%
